Experimental data as given in publication PMC13395443.
No constants are given. Whether binding was seen depends on the method and setting. Binding seen in cells or lysates may run through a third protein. Some entries that bind do so weakly or less than the wild type. For some assays here: Tags and fused reporters may be left off the sequences shown. Values belong to the molecule of their own block, whether it stands above or below them.

Experiments:
[1] = molecular target: STAT5B, FLAG-tagged or V5-tagged (pTwist-FLAG-STAT5B, pTwist-V5-STAT5B) (human) (UniProt P51692); test: co-IP; HEK293T co-transfected with FLAG- and V5-tagged STAT1 and STAT5B; whole cell lysates in RIPA buffer 24 h post transfection; anti-FLAG M2 magnetic beads, 4 h at 4 °C; five washes with RIPA buffer; immunoblots with anti-V5 and anti-FLAG
[2] = molecular target: T1, STAT5B, FLAG-tagged or V5-tagged (pTwist-FLAG-STAT5B, pTwist-V5-STAT5B) (human), P51692; test: as above; conditions: remark: other sources report otherwise
T1 chain: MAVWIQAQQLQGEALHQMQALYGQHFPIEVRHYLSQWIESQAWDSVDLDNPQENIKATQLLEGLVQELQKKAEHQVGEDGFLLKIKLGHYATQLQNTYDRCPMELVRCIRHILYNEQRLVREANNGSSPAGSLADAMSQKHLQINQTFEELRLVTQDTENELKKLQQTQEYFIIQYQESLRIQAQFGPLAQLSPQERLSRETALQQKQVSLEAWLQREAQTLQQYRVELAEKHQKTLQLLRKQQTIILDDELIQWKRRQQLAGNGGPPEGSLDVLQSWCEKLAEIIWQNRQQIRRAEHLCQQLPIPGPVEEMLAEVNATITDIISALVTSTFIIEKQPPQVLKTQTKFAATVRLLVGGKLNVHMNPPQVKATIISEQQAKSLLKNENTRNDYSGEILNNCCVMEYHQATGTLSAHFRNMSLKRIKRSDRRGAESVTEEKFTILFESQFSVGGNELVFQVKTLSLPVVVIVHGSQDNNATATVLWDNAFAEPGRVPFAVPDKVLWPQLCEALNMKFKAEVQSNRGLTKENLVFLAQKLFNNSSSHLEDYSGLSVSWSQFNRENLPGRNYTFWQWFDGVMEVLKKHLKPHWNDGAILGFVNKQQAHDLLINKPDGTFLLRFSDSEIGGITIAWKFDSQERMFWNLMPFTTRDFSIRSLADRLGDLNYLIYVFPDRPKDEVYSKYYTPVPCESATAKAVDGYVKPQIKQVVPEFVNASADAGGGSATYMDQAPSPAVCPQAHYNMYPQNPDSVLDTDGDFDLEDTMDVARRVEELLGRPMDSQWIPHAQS

[3] = molecular target: T2, STAT1, FLAG-tagged or V5-tagged (pTwist-FLAG-STAT1, pTwist-V5-STAT1) (human), P42224; test: as above; conditions: remark: other sources report otherwise
T2 chain: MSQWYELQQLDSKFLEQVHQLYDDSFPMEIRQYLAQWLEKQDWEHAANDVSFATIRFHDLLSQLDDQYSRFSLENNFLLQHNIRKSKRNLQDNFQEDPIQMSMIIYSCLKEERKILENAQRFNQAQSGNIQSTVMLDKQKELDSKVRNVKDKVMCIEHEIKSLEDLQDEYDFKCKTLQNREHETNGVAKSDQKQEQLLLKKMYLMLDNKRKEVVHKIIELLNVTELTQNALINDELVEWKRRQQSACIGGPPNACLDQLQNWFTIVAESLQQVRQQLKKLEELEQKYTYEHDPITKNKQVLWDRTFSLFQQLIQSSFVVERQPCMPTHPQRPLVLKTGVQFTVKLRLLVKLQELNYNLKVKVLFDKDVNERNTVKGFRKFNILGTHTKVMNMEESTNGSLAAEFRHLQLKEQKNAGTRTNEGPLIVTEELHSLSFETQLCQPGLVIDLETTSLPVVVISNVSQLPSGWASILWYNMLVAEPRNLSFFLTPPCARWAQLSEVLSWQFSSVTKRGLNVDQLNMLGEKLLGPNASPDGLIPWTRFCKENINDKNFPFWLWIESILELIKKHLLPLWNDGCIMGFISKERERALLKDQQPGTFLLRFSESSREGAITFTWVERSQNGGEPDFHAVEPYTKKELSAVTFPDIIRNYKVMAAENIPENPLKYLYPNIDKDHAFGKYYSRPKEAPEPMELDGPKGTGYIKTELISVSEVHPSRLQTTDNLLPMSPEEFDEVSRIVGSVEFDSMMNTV

[4] = molecular target: T3, STAT5B, endogenous (human (endogenous in NHLF and HDF hTERT)), P51692; test: co-IP; endogenous STAT1 and STAT5B in NHLF cells treated with 1 nM IFN-β for 1 h or left untreated; immunoblot; conditions: remark: other sources report otherwise
T3 chain: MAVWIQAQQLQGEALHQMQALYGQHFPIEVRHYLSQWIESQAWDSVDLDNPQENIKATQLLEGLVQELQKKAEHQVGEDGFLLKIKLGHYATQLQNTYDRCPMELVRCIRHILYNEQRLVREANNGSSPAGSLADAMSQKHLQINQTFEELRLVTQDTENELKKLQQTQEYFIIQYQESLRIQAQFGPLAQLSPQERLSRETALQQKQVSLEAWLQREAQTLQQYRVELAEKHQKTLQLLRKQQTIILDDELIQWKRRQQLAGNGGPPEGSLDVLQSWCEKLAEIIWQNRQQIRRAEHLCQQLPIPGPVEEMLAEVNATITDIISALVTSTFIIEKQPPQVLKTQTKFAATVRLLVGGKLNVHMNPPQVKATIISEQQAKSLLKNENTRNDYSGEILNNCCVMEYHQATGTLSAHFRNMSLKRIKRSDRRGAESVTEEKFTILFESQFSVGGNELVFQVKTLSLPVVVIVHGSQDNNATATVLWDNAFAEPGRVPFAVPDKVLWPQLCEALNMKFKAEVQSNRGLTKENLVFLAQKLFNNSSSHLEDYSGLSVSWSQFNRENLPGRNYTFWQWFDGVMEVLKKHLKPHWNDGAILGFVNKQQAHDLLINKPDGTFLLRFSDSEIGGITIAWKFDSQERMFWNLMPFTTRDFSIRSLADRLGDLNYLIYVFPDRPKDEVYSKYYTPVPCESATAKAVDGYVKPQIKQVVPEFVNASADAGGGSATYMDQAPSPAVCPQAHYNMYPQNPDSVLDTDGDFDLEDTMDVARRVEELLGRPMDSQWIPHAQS

[5] = molecular target: T3, STAT5B, endogenous (human (endogenous …)); test: proximity ligation; HDF hTERT cells with or without 1 nM IFN-β for 1 h; fixed, permeabilised; mouse anti-STAT1 and rabbit anti-STAT5B; DuoLink In-situ Detection Reagents Far Red; PLA spots per nucleus counted; conditions: remark: other sources report otherwise

binding [1]: binds
Molecule: STAT5B, FLAG-tagged or V5-tagged (pTwist-FLAG-STAT5B, pTwist-V5-STAT5B) (from UniProt P51692 1-787)

binding [2]: binds
binding [3]: binds
B1: STAT1, FLAG-tagged or V5-tagged (pTwist-FLAG-STAT1, pTwist-V5-STAT1), P42224 1-750 (protein)
chain: MSQWYELQQLDSKFLEQVHQLYDDSFPMEIRQYLAQWLEKQDWEHAANDVSFATIRFHDLLSQLDDQYSRFSLENNFLLQHNIRKSKRNLQDNFQEDPIQMSMIIYSCLKEERKILENAQRFNQAQSGNIQSTVMLDKQKELDSKVRNVKDKVMCIEHEIKSLEDLQDEYDFKCKTLQNREHETNGVAKSDQKQEQLLLKKMYLMLDNKRKEVVHKIIELLNVTELTQNALINDELVEWKRRQQSACIGGPPNACLDQLQNWFTIVAESLQQVRQQLKKLEELEQKYTYEHDPITKNKQVLWDRTFSLFQQLIQSSFVVERQPCMPTHPQRPLVLKTGVQFTVKLRLLVKLQELNYNLKVKVLFDKDVNERNTVKGFRKFNILGTHTKVMNMEESTNGSLAAEFRHLQLKEQKNAGTRTNEGPLIVTEELHSLSFETQLCQPGLVIDLETTSLPVVVISNVSQLPSGWASILWYNMLVAEPRNLSFFLTPPCARWAQLSEVLSWQFSSVTKRGLNVDQLNMLGEKLLGPNASPDGLIPWTRFCKENINDKNFPFWLWIESILELIKKHLLPLWNDGCIMGFISKERERALLKDQQPGTFLLRFSESSREGAITFTWVERSQNGGEPDFHAVEPYTKKELSAVTFPDIIRNYKVMAAENIPENPLKYLYPNIDKDHAFGKYYSRPKEAPEPMELDGPKGTGYIKTELISVSEVHPSRLQTTDNLLPMSPEEFDEVSRIVGSVEFDSMMNTV

binding [4]: binds
binding [5]: binds
B2: STAT1, endogenous, P42224 1-750 (protein)
chain: MSQWYELQQLDSKFLEQVHQLYDDSFPMEIRQYLAQWLEKQDWEHAANDVSFATIRFHDLLSQLDDQYSRFSLENNFLLQHNIRKSKRNLQDNFQEDPIQMSMIIYSCLKEERKILENAQRFNQAQSGNIQSTVMLDKQKELDSKVRNVKDKVMCIEHEIKSLEDLQDEYDFKCKTLQNREHETNGVAKSDQKQEQLLLKKMYLMLDNKRKEVVHKIIELLNVTELTQNALINDELVEWKRRQQSACIGGPPNACLDQLQNWFTIVAESLQQVRQQLKKLEELEQKYTYEHDPITKNKQVLWDRTFSLFQQLIQSSFVVERQPCMPTHPQRPLVLKTGVQFTVKLRLLVKLQELNYNLKVKVLFDKDVNERNTVKGFRKFNILGTHTKVMNMEESTNGSLAAEFRHLQLKEQKNAGTRTNEGPLIVTEELHSLSFETQLCQPGLVIDLETTSLPVVVISNVSQLPSGWASILWYNMLVAEPRNLSFFLTPPCARWAQLSEVLSWQFSSVTKRGLNVDQLNMLGEKLLGPNASPDGLIPWTRFCKENINDKNFPFWLWIESILELIKKHLLPLWNDGCIMGFISKERERALLKDQQPGTFLLRFSESSREGAITFTWVERSQNGGEPDFHAVEPYTKKELSAVTFPDIIRNYKVMAAENIPENPLKYLYPNIDKDHAFGKYYSRPKEAPEPMELDGPKGTGYIKTELISVSEVHPSRLQTTDNLLPMSPEEFDEVSRIVGSVEFDSMMNTV
